Results as given in patent US6130248A, “Tricarboxylic acid-containing oxyalkyl esters and uses thereof” (Bar-ILAn University, priority 1996, dated 2000).
For at least one compound, name, drawing or mass did not settle the structure.

Legend:
Type in all cases: cell-based, human
MCF-7 cells (WAF) = assay: Apoptosis in breast cancer cells, staining with WAF antibody / Western blot; settings: in words
Description: Induction of apoptosis by COMB and AB in MCF-7 cells was evaluated by staining cells with the WAF antibody and by Western blot analysis as described by Bacus et al., 1996, Oncogene 12:2535-2547.

[1] = test system: established tumor cell lines; assay: Clonogenicity of established tumor cell lines, all lines together; settings: in words
Description: Inhibition of tumor growth was tested using cell lines as follows: […]

[2] = test system: 53 primary tumor cell lines; assay: Inhibition of clonogenicity of primary tumor cells; settings: FIG. 2, all 53 lines, in words
Excerpt: The tested tumor cells were from 11 non-small cell lung carcinomas, 10 breast carcinomas, 10 gastric carcinomas, 10 ovarian carcinomas, and 10 CNS tumors.

HL-60 leukemia cells = assay: Differentiation by nitroblue tetrazolium reduction (NBT); settings: three days, FIG. 4, in words
K562 cells (HbF) = assay: Hb-containing K562 cells by benzidine staining; settings: molar basis, in words
Description: Hb Measurement: HB was measured by benzidine staining of K562 cells after 5 days exposure to GOMB or AB according to the procedure of Fibach et al. (1989) [full cite]. Quantitative measurement of HbF in K562 culture or human erythroid cultures was determined by ion-exchange high pressure liquid chromatography (HPLC) as described by Fibach et al., Blood 81:1630-1635, 1993.
K562 cells: K562 is an erthroblast cell line that develops some properties of erythroid, megakaryocyte or monocyte cells, depending on the specific stimulus, when induced by different chemicals. K562 cells were grown in RPMI with 10% FCS, supplemented with 2 mM glutamine. Cells were incubated at 37° C. in a humidified, 5% CO2 incubator.

## CCCC(=O)OCOC(=O)CCCC(=O)O [GOMB, mono-(butyroyloxymethyl)glutarate]
MCF-7 cells (WAF)
  induction of apoptosis: induces apoptosis in a dose-dependent manner
[1]
  inhibition of cell proliferation, dose dependence: inhibit cell proliferation in a dose-dependent manner
  sensitivity of the cells to GOMB compared with AB: an order of magnitude more sensitive to GOMB
[2]
  inhibition of cell proliferation compared with AB: more potent inhibitor of cell proliferation than is AB
HL-60 leukemia cells
  differentiation-inducing activity compared with AB or AN-9: more active at inducing differentiation than either AB or AN-9
K562 cells (HbF)
  activity in inducing erythroid differentiation compared with AB: higher activity in inducing erythroid differentiation (hemoglobin accumulation) than does AB
